In PubChem BioAssay AID330 (DTP/NCI, 2004):
The list does not hold the whole screen: it is rich in T/C values a quarter to a half above the control, in often repeated tests (any T/C) and in doses without a T/C. Further doses and runs are listed elsewhere. T/C: endpoint of the treated group in % of that of the vehicle group. Some entries give survivors of the animals treated and no T/C: the source files T/C as zero there, which appears to mark a toxic dose or a test without result, not a measured value. Some survivor counts are full or nearly so, which does not show that the dose was tolerated: survival well below the control is almost never listed, so the zero probably covers shortened survival too. Counts of survivors are from the toxicity check (mostly the fifth day) where no day follows; animals may have died later. Schedules are NCI's codes, taken here to give the interval after Q, in days (D) or hours (H), and the number of doses after X. Some entries hold several experiments; the results are listed from low to high. Additions like (4×) stand for listed records that agree. For survival time, the PubChem record calls one and a half times the control and up active, and a quarter to a half above the control has no call in these data; cut-offs in other NCI protocols can differ.

System: P388 leukemia ip, CD2F1 mice, survival T/C
Test: NCI In Vivo Anticancer Drug Screen. Data for tumor model P388 Leukemia (intraperitoneal) in CD2F1 (CDF1) mice
Conditions: T/C endpoint: median survival time, higher T/C = longer survival
[1] = dose: 100.0 mg/kg/injection, schedule: Q01DX009 (ip), vehicle: saline
[2] = dose: 200.0 mg/kg/injection, schedule: Q01DX009 (ip), vehicle: saline
[3] = dose: 200.0 mg/kg/injection, schedule: Q01DX009 (ip), vehicle: saline with Tween-80
[4] = dose: 100.0 mg/kg/injection, schedule: Q01DX005 (ip), vehicle: saline with Tween-80
[5] = dose: 200.0 mg/kg/injection, schedule: Q01DX005 (ip), vehicle: saline with Tween-80
[6] = dose: 50.0 mg/kg/injection, schedule: Q01DX009 (ip), vehicle: saline
[7] = dose: 200.0 mg/kg/injection, schedule: Q01DX005 (ip), vehicle: Klucel (hydroxypropylcellulose) (HPC)
[8] = dose: 100.0 mg/kg/injection, schedule: Q01DX005 (ip), vehicle: saline
[9] = dose: 200.0 mg/kg/injection, schedule: Q01DX005 (ip), vehicle: saline
[10] = dose: 240.0 mg/kg/injection, schedule: Q01DX005 (ip), vehicle: saline with Tween-80
[11] = dose: 50.0 mg/kg/injection, schedule: Q01DX009 (ip), vehicle: saline with Tween-80

Which results are given for `CCC1(C)N=C(N)Nc2nc3cc(C)c(C)cc3n21` (stereo not drawn)?
survivor count [1]: 6 of 6; survivor count [2]: 2 of 6

Which survivor count (dose: 200.0 mg/kg/injection, schedule: Q01DX009 (ip), vehicle: Klucel (hydroxypropylcellulose) (HPC)) does the source give for `CCCCSc1nc2ccc(N=Cc3ccccc3O)cc2s1` here?
The survivor count was 5 of 6.

With `COc1ccc2c(NCCCCCCCCNc3c4ccccc4nc4cc(OC)ccc34)c3ccccc3nc2c1` as the molecule, how does the T/C (dose: 0.31 mg/kg/injection, schedule: Q01DX009 (ip), vehicle: other) read?
The T/C was 129 % of control.

What about the T/C (dose: 0.62 mg/kg/injection, schedule: Q01DX009 (ip), vehicle: other) of the same molecule?
Its T/C is 134 % of control.

What about the T/C (dose: 0.63 mg/kg/injection, schedule: Q01DX009 (ip), vehicle: other) of the same molecule?
Its T/C is 144 and 146 % of control.

What about the T/C (dose: 1.25 mg/kg/injection, schedule: Q01DX009 (ip), vehicle: other) of the same molecule?
The T/C was 139, 156, 166, 174 % of control.

And the T/C (dose: 2.5 mg/kg/injection, schedule: Q01DX009 (ip), vehicle: other)?
The T/C was 134, 138, 157, 166 % of control.

And the T/C (dose: 5.0 mg/kg/injection, schedule: Q01DX009 (ip), vehicle: other)?
Its T/C is 87, 135, 157, 166 % of control.

And the survivor count (dose: 10.0 mg/kg/injection, schedule: Q01DX009 (ip), vehicle: other)?
Its survivor count is 3 of 4 and 6 of 6.

And the survivor count (dose: 15.0 mg/kg/injection, schedule: Q01DX009 (ip), vehicle: other)?
The survivor count was 2 of 4.

And the survivor count (dose: 20.0 mg/kg/injection, schedule: Q01DX009 (ip), vehicle: other)?
The survivor count was 0 of 4 and 2 of 6.

Which survivor count (dose: 240.0 mg/kg/injection, schedule: Q01DX005 (ip), vehicle: saline + Tween-80 + alcohol) does the source give for `COC(=O)c1nc(=S)[nH]c(C(=O)OC)c1C(=O)/C=C/c1ccccc1` here?
The survivor count was 2 of 6.

Which survivor count [3] does the source give for `Nc1ccc(NC(=O)c2cc(Cl)cc(Cl)c2O)c(Cl)c1` here?
The survivor count was 2 of 6.

What does the source list for `COc1ccc2[nH]c3c(c2c1)C(c1ccccc1)c1ccccc1-3` (stereo not drawn)?
survivor count [4]: 5 of 5; survivor count [5]: 5 of 5

For `Cc1ccc(N=CN(C)C)c(Cl)c1`, which survivor count (dose: 50.0 mg/kg/injection, schedule: Q04DX003 (ip), vehicle: Klucel (hydroxypropylcellulose) (HPC)) is on record?
The survivor count was 5 of 6.

And the survivor count (dose: 100.0 mg/kg/injection, schedule: Q04DX003 (ip), vehicle: Klucel (hydroxypropylcellulose) (HPC))?
Its survivor count is 0 of 6.

What about the survivor count (dose: 200.0 mg/kg/injection, schedule: Q04DX003 (ip), vehicle: Klucel (hydroxypropylcellulose) (HPC)) of the same molecule?
The survivor count was 0 of 6.

And the survivor count (dose: 400.0 mg/kg/injection, schedule: Q04DX003 (ip), vehicle: Klucel (hydroxypropylcellulose) (HPC))?
The survivor count was 0 of 6.

For `CCCCCCCOc1ccc(OCCCC[N+]2(CC)CCCCC2)cc1`, which survivor count [6] is on record?
Its survivor count is 0 of 6.

And the survivor count [1]?
The survivor count was 0 of 6.

And the survivor count [2]?
Its survivor count is 0 of 6.

Which results are given for `CC1(C)CSC(=S)SC1`?
survivor count (dose: 200.0 mg/kg/injection, schedule: Q04DX002 (ip), vehicle: saline with Tween-80): 0 of 6; survivor count (dose: 400.0 mg/kg/injection, schedule: Q04DX002 (ip), vehicle: saline with Tween-80): 0 of 6

`O=NN(CCCl)C(=O)Oc1ccc(Cl)cc1Cl` was tested. Which T/C (dose: 12.5 mg/kg/injection, schedule: Q01DX001 (ip), vehicle: saline with Tween-80) did it give?
Its T/C is 128 % of control.

And the T/C (dose: 50.0 mg/kg/injection, schedule: Q01DX001 (ip), vehicle: saline with Tween-80)?
The T/C was 131 % of control.

Which survivor count [4] does the source give for `O=C(Nc1cccc2ccccc12)ON1C(=O)c2ccccc2C1=O` here?
Its survivor count is 5 of 6.

And the survivor count [5]?
The survivor count was 1 of 5, 3 of 6, 3 of 5.

And the survivor count (dose: 400.0 mg/kg/injection, schedule: Q01DX005 (ip), vehicle: saline with Tween-80)?
The survivor count was 0 of 5 (2×) and 0 of 6.

With `O=C1OC(C(Cl)(Cl)Cl)Nc2ccccc21` (stereo not drawn) as the molecule, how does the survivor count [7] read?
The survivor count was 4 of 5.

`N=c1c2ncn(C3OC(CO)C(O)C3O)c2ncn1O` (stereo not drawn) was tested. Which survivor count [8] did it give?
Its survivor count is 3 of 6.

And the survivor count [9]?
Its survivor count is 0 of 6.

Which results are given for `CC(C)CCC1=CC(=O)c2c(O)ccc(O)c2C1=O`?
survivor count (dose: 87.5 mg/kg/injection, schedule: Q04DX002 (ip), vehicle: DMSO): 3 of 6; survivor count (dose: 175.0 mg/kg/injection, schedule: Q04DX002 (ip), vehicle: DMSO): 0 of 6; survivor count (dose: 350.0 mg/kg/injection, schedule: Q04DX002 (ip), vehicle: DMSO): 0 of 6

Which survivor count [7] does the source give for `O=C(/C=C/c1ccc(Cl)cc1)c1ccccc(=O)c1O` here?
Its survivor count is 3 of 6.

How did the survivor count (dose: 120.0 mg/kg/injection, schedule: Q01DX005 (ip), vehicle: saline with Tween-80) turn out when `Cc1c([O-])on[n+]1Cc1ccccc1` was run?
The survivor count was 0 of 6.

And the survivor count [10]?
The survivor count was 0 of 6.

How did the survivor count [7] turn out when `COc1ccc(C2(C3NCCC4=C3CCCC4)CC2)cc1` (stereo not drawn) was run?
The survivor count was 2 of 6.

Which T/C (dose: 12.5 mg/kg/injection, schedule: Q01DX009 (ip), vehicle: distilled water + Tween-80 + alcohol) does the source give for `CC1=CC(=C2C=CC(=[N+](C)C)C=C2)C=C(C)S1` here?
Its T/C is 126 % of control.

What about the survivor count (dose: 25.0 mg/kg/injection, schedule: Q01DX009 (ip), vehicle: distilled water + Tween-80 + alcohol) of the same molecule?
The survivor count was 3 of 6 and 4 of 6.

And the survivor count (dose: 50.0 mg/kg/injection, schedule: Q01DX009 (ip), vehicle: distilled water + Tween-80 + alcohol)?
The survivor count was 0 of 6.

And the survivor count (dose: 100.0 mg/kg/injection, schedule: Q01DX009 (ip), vehicle: distilled water + Tween-80 + alcohol)?
The survivor count was 0 of 6.

What about the survivor count (dose: 200.0 mg/kg/injection, schedule: Q01DX009 (ip), vehicle: distilled water + Tween-80 + alcohol) of the same molecule?
Its survivor count is 0 of 6.

Which results are given for `NCCc1ccc(N)cc1`?
survivor count [2]: 5 of 6; survivor count (dose: 400.0 mg/kg/injection, schedule: Q01DX009 (ip), vehicle: saline): 0 of 6

How did the survivor count [2] turn out when `Nc1ncncc1-c1ccc(F)cc1` was run?
The survivor count was 0 of 6.

For `CC1CCCCN1CC(C)(C)C` (stereo not drawn), which survivor count (dose: 240.0 mg/kg/injection, schedule: Q01DX005 (ip), vehicle: Klucel (hydroxypropylcellulose) (HPC)) is on record?
The survivor count was 0 of 6.

With `O=C(/C=C/c1ccc(Cl)c(Cl)c1)c1cccc(O)c(=O)c1` as the molecule, how does the survivor count (dose: 12.5 mg/kg/injection, schedule: Q01DX009 (ip), vehicle: Klucel (hydroxypropylcellulose) (HPC)) read?
The survivor count was 6 of 6.

Which survivor count [6] does the source give for `CN(C)CCC[N+](C)(C)Cc1ccc(C[N+](C)(C)CCC[N+](C)(C)Cc2ccc(CCl)cc2)cc1` here?
The survivor count was 0 of 6.

What about the survivor count [1] of the same molecule?
The survivor count was 0 of 6.

What about the survivor count [2] of the same molecule?
Its survivor count is 0 of 6.

What does the source list for `Cc1c(C)c(C[P+](CCP(c2ccccc2)c2ccccc2)(c2ccccc2)c2ccccc2)c(C)c(C)c1C[P+](CCP(c1ccccc1)c1ccccc1)(c1ccccc1)c1ccccc1`?
survivor count (dose: 25.0 mg/kg/injection, schedule: Q04DX002 (ip), vehicle: saline with Tween-80): 4 of 6; survivor count (dose: 50.0 mg/kg/injection, schedule: Q04DX002 (ip), vehicle: saline with Tween-80): 2 of 6

`O=C([O-])c1cc(Br)cc(Br)c1[OH2+].O=C([O-])c1cc(Br)cc(Br)c1[OH2+].[Mn+2]` was tested. Which T/C [10] did it give?
The T/C was 126 % of control.

Which T/C [11] does the source give for `Cc1ccc(NC(=S)NCCc2ccccn2)cc1C` here?
Its T/C is 134 % of control.

Which results are given for `O=C(O)c1ccc2nc(-c3ccccc3)cn2c1`?
survivor count (dose: 200.0 mg/kg/injection, schedule: Q04DX003 (ip), vehicle: saline with Tween-80): 5 of 6; survivor count (dose: 400.0 mg/kg/injection, schedule: Q04DX003 (ip), vehicle: saline with Tween-80): 6 of 6

How did the survivor count [8] turn out when `CN(C)CC(CN(C)C)C(=O)c1ccc(Cl)c(Cl)c1` was run?
Its survivor count is 3 of 6.

What about the survivor count [9] of the same molecule?
The survivor count was 0 of 6.

`CC1=C(C)C(=O)OC(C(C)(O)C2(O)CC=C3C4CC(O)C5(O)C(O)C=CC(=O)C5(C)C4CCC32C)C1` (stereo not drawn) was tested. Which T/C (dose: 62.0 mg/kg/injection, schedule: Q01DX005 (ip), vehicle: Klucel (hydroxypropylcellulose) (HPC)) did it give?
The T/C was 125 % of control.

What does the source list for `Cc1cc(N(CCCl)CCCl)ccc1CN1CCCN(Cc2ccc(N(CCCl)CCCl)cc2C)C1c1ccccc1O`?
T/C (dose: 6.25 mg/kg/injection, schedule: Q01DX009 (ip), vehicle: saline with Tween-80): 130 % of control; T/C (dose: 25.0 mg/kg/injection, schedule: Q01DX009 (ip), vehicle: saline with Tween-80): 146 % of control; T/C [11]: 132 % of control

What does the source list for `O=C1C(Cl)=C(Cl)C(=O)C(/C=C/N2CCOCC2)=C1Cl`?
survivor count (dose: 200.0 mg/kg/injection, schedule: Q01DX001 (ip), vehicle: saline with Tween-80): 0 of 6; survivor count (dose: 400.0 mg/kg/injection, schedule: Q01DX001 (ip), vehicle: saline with Tween-80): 0 of 6

`CC(C)CC(=O)CC1(C)CCC(c2ccoc2)O1` (stereo not drawn) was tested. Which survivor count [3] did it give?
The survivor count was 0 of 6.
